Test results as given in the supplement of paper PMC10849652.
Some of the results follow.

The chains behind the UniProt entries cited, without tags or fusion partners. Where a name states a change or a piece, a line headed by the entry shows the natural chain unless it says otherwise.
UniProt P05386, whole entry, looked up: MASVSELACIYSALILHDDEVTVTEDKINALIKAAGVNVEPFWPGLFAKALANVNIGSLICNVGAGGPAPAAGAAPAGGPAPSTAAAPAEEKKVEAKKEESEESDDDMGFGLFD
UniProt O43148, whole entry, looked up: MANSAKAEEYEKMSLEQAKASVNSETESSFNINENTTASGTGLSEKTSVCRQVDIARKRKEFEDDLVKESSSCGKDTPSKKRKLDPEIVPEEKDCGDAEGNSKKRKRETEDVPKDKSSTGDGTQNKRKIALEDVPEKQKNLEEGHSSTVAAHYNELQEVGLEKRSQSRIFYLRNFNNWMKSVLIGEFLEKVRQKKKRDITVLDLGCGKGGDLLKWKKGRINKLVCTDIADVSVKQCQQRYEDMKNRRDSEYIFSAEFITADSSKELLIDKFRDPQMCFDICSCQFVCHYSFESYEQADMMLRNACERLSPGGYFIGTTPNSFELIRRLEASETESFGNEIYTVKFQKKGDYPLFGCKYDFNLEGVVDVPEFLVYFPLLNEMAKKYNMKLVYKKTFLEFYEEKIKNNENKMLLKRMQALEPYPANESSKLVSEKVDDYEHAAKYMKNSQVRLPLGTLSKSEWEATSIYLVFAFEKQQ
UniProt Q8TA86: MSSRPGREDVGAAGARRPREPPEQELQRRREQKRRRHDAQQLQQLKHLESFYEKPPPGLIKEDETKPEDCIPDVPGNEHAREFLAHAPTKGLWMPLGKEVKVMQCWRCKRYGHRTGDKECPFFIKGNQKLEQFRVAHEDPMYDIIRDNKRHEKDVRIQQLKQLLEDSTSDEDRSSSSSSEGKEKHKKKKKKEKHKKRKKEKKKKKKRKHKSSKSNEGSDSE
UniProt P49247: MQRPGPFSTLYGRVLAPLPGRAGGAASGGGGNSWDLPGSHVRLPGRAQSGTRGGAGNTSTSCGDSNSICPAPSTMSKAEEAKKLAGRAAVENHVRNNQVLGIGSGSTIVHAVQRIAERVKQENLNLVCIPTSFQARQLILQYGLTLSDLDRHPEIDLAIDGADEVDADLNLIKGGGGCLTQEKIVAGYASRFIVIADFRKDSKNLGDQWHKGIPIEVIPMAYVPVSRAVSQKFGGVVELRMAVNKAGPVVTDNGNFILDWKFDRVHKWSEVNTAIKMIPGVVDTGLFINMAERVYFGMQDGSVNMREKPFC
UniProt Q9UBF6, whole entry, looked up: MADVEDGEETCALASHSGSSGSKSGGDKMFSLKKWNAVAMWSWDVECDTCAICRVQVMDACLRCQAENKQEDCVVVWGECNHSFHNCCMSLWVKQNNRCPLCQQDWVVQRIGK
UniProt P78345: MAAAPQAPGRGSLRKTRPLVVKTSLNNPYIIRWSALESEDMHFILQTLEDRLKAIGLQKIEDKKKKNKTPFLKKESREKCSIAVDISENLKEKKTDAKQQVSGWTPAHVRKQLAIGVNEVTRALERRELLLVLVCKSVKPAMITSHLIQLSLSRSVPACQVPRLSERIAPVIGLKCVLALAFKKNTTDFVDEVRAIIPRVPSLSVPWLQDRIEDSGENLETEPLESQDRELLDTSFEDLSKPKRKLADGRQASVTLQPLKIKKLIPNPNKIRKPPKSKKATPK
UniProt P04844: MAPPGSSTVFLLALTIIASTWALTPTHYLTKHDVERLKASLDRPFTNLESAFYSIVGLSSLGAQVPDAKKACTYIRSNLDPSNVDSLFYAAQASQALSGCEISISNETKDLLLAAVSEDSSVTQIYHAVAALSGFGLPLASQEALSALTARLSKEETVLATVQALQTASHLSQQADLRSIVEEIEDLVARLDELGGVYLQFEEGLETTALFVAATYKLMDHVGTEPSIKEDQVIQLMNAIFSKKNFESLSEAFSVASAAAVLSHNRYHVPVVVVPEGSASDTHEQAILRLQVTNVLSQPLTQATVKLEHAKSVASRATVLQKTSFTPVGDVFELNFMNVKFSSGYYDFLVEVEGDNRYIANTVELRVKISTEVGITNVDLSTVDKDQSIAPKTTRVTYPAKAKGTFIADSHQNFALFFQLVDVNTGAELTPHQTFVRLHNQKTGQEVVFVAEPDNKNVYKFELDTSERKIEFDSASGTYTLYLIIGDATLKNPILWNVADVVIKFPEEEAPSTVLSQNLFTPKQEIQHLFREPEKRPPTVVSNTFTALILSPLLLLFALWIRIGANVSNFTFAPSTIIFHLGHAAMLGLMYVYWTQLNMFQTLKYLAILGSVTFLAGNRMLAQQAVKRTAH
UniProt O60942: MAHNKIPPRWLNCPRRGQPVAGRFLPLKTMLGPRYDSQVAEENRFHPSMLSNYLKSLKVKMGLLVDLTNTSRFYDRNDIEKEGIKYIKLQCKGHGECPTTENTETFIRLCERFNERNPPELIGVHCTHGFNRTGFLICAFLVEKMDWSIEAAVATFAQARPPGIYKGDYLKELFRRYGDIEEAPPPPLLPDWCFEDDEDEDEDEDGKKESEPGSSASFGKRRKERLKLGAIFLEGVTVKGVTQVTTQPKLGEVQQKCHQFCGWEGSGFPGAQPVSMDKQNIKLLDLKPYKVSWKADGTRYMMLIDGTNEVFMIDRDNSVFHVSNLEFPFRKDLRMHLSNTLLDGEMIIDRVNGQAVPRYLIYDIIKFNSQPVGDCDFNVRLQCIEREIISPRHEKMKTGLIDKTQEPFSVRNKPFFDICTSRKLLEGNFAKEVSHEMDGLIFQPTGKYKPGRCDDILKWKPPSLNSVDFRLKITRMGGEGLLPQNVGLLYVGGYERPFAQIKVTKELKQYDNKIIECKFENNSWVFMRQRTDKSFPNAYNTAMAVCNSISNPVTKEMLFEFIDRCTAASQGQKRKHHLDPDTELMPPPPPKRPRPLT
UniProt Q7L523, whole entry, looked up: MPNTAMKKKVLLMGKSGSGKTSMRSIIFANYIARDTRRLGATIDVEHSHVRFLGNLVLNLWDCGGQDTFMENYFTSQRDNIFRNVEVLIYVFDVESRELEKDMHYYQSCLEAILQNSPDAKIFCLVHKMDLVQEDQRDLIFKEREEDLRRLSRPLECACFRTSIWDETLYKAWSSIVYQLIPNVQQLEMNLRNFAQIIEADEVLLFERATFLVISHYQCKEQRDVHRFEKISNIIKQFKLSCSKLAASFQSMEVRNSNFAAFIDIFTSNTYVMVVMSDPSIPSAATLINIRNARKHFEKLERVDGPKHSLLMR
UniProt P23921: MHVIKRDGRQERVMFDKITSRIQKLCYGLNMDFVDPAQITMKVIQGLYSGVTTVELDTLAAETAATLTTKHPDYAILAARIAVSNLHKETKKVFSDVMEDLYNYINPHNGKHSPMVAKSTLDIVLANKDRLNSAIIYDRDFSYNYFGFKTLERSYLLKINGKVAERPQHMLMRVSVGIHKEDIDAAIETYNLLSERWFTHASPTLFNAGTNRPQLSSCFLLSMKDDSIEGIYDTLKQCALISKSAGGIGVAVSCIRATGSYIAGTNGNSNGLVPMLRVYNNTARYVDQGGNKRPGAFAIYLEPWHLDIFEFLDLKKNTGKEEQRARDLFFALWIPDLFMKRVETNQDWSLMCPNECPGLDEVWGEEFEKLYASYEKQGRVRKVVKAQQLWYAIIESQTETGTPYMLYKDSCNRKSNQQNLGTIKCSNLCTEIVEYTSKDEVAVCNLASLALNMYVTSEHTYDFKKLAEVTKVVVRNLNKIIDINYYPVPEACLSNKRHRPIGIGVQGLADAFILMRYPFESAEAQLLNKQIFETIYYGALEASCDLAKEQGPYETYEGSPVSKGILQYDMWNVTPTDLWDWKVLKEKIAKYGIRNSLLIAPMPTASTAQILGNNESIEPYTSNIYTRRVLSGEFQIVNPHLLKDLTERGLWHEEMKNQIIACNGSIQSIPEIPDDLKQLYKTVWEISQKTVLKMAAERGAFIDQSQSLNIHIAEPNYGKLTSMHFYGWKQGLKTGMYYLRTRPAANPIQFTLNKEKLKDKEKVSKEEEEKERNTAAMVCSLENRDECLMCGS
UniProt Q9H6T3, whole entry, looked up: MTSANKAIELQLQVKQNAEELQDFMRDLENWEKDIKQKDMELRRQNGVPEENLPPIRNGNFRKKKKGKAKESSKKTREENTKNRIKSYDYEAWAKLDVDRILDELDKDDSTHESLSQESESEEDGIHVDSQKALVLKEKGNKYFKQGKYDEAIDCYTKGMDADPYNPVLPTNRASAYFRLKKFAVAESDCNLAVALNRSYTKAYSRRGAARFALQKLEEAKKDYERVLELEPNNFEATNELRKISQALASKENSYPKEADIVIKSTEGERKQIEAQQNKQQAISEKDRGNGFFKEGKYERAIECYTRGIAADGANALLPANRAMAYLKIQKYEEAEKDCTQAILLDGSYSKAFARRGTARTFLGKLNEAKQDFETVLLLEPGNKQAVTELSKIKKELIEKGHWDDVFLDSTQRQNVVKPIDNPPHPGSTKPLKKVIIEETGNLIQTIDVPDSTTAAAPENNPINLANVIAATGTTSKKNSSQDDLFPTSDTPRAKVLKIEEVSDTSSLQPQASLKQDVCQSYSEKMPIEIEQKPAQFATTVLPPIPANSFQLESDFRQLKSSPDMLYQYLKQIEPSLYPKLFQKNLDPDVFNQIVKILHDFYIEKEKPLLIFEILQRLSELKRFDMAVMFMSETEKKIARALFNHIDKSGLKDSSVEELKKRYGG
UniProt P78346: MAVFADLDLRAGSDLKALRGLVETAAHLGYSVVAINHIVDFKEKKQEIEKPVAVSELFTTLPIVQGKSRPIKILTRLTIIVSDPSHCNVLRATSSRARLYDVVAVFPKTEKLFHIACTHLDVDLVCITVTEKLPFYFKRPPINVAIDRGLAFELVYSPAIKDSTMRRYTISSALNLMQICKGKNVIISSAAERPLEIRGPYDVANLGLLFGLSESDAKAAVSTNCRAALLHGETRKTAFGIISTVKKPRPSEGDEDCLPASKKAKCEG

The targets below were run with c1cn2cc(-c3ccc4cn[nH]c4c3)nc(Nc3ccc(N4CCOCC4)cc3)c2n1 [entospletinib] (assay: log2 fold change, soluble protein after heating vs DMSO (PISA); higher = thermal stabilisation; K562 cells, 10 uM, 30 min; active = over 0.2 and 3.5 SD of the protein, either way, in both replicates (recomputed)).
Outline: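 Soluble protein was quantified by TMTpro 16plex LC-MS/MS after channel sums were equalised. It was obtained as the supernatant after 21,000xg for 90 min from pooled aliquots of K562 cells (2×10^6 cells/mL, 10 μM compound, 30 min) heated for 3 min across 48°C-58°C and extracted in PBS with 0.5% NP-40 at 4°C. Thermal stability values are relative to control samples and come from duplicates. They are given as log2 fold changes.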

log2 fold change, inactive:
RPL14 (UniProt P50914) 0.203
RPLP1 (UniProt P05386) 0.172
RPL13A (UniProt P40429) 0.074
RNMT isoform 2 (UniProt O43148) 0.017
RP9 (UniProt Q8TA86) 0.062
RPIA (UniProt P49247) -0.012
RPS8 (UniProt P62241) 0.131
RPL36 (UniProt Q9Y3U8) 0.03
RPL4 (UniProt P36578) 0.109
RNF7 (UniProt Q9UBF6) -0.068
RPP38 (UniProt P78345) -0.011
RPN2 (UniProt P04844) -0.011
RPL13 (UniProt P26373) 0.138
RNGTT (UniProt O60942) -0.073
RPL8 (UniProt P62917) 0.08
RPS28 (UniProt P62857) 0.1
RPL18A (UniProt Q02543) 0.111
RPS29 (UniProt P62273) 0.226
RPL27A (UniProt P46776) 0.198
RPL10 (UniProt F8W7C6) -0.037
RPS17 (UniProt P08708) 0.074
RPL11 (UniProt P62913) 0.051
RRAGA (UniProt Q7L523) 0.083
RPL22L1 (UniProt Q6P5R6) 0.055
RPL7 (UniProt P18124) 0.132
RPS26 (UniProt P62854) 0.155
RPS11 (UniProt P62280) 0.101
RRM1 (UniProt P23921) -0.003
RPL30 (UniProt P62888) 0.123
RPL23 (UniProt P62829) 0.108
RPL18 (UniProt Q07020) 0.145
RPAP3 (UniProt Q9H6T3) 0.054
RPP30 isoform 2 (UniProt P78346) 0.08

2 successive entries from above:
log2 fold change, inactive:
RPS28 (UniProt P62857) 0.1
RPL18A (UniProt Q02543) 0.111
